In PubChem BioAssay AID1487 (National Center for Advancing Translational Sciences (NCATS), 2009) one finds AC50 data, which are given here for 55 compounds.

Some of the results follow. These are further read-outs of the screen, such as a control signal, another cell line or another target. No call is given for them. The list favours compounds with an active or inconclusive main result. Words in brackets tell the shape of the fitted curve; partial curves, single points and poor fits give uncertain potencies.

For orientation: AC50 means the concentration giving half of the maximal activity seen.

This assay is described as follows: qHTS Assay for Modulators of Lamin A Splicing. The following applies: HeLa LMNA splicing GFP/RFP minigene ratio, 48 h. Put shortly:
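S3 HeLa stable clones carrying a lamin A-EGFP splicing minigene plus DsRed2 were seeded at 600 cells/well in Opti-MEM with 2% FBS, pin-dosed and incubated 48 h at 37°C. Acumen cytometry (488 nm) gave the GFP/RFP total-intensity ratio.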

The mark [1] stands for this setting: measured here: GFP splicing reporter channel.
Setting [2] is: measured here: RFP viability control channel.

On to `COCCn1c(C)cc(C(=O)CSc2nc3nc(C)cc(C)n3n2)c1C`, for which the AC50 is, setting by setting: under setting [1], 3.55 µM [rising, partial curve, poor fit]; under setting [2], 5.01 µM [rising, partial curve, poor fit].

Consider `CN(CCC#N)C(=S)Nc1ccc(Oc2ccccc2)cc1`, for which the AC50 was 7.94 µM [rising, partial curve, poor fit] under setting [1] and 15.8 µM [rising, partial curve, poor fit] under setting [2].

Take `O=C(Nc1ccc(O)cc1)c1ccc(C(=O)c2ccccc2)o1`: the AC50 under setting [2] is 10 µM [rising, partial curve].

Regarding `COc1ccc(Br)cc1CN(C)CC(=O)Nc1ccccc1Cl`, the AC50 under setting [2] is 0.562 µM [rising, partial curve].

Take `COc1ccc(Cl)cc1S(=O)(=O)N1CCN(c2ccc(F)cc2)CC1`: the AC50 under setting [2] is 6.31 µM [rising, partial curve].

As to `O=C(O)/C=C/C(=O)N1CCN(S(=O)(=O)c2cccc(C(F)(F)F)c2)CC1`, the AC50 under setting [2] is 2.51 µM [rising, partial curve].

Consider `COC(=O)c1c(CSc2ccc(Cl)cc2)noc1C(=O)NCc1ccco1`, for which the AC50 runs as follows: under setting [1], 12.6 µM [rising, single point]; under setting [2], 17.8 µM [rising, single point].

In the case of `O=C(c1cc(-c2cccs2)on1)N1CCN(C(c2ccccc2)c2ccccc2)CC1`, the AC50 under setting [2] is 14.1 µM [rising, single point].

For `O=C1CCCN1c1ccc(S(=O)(=O)Nc2ccc3c(c2)OCCO3)cc1`, the AC50 under setting [2] was 2.82 µM [rising, partial curve].

As to `O=C(Cc1csc(Nc2nc(=S)[nH]c3ccccc23)n1)NCCCN1CCN(c2ccccc2F)CC1`, the AC50 under setting [1] is 0.02 µM [falling, full curve, poor fit].

`Cc1ccc(S(=O)(=O)N(CC(=O)NCCC2=CCCCC2)Cc2ccccc2)cc1`: the AC50 under setting [2] was 35.5 µM [falling, single point].

On to `Cc1ccc(-c2cc(C(F)F)n3ncc(C(=O)N4CCN(c5cccc(C)c5C)CC4)c3n2)cc1`, for which the AC50 is 15.8 µM [rising, partial curve] under setting [1] and 31.6 µM [rising, single point] under setting [2].

For the compound `CC(=O)Nc1ccc(OS(=O)(=O)c2ccc(C)cc2C)cc1`, the AC50 under setting [2] is 35.5 µM [falling, single point].

As for `COc1ccc(CCN2CCC(CNC(=O)c3cnn(-c4cccc(Cl)c4)c3C3CCN(C(=O)OC(C)(C)C)CC3)CC2)cc1`, the half-maximal activity concentration (AC50) reads like this: under setting [1], 14.1 µM [falling, partial curve]; under setting [2], 12.6 µM [falling, partial curve].

In the case of `CCc1nnc(NC(=O)c2sc3nc4c(cc3c2N)CCCCC4)s1`, the AC50 under setting [2] was 12.6 µM [rising, partial curve, poor fit].

Regarding `Cc1cc(C[n+]2ccccc2)c2nsnc2c1`, under setting [2], the AC50 is 35.5 µM [rising, single point].

Take `O=C(CSc1nc2ccccc2c(=O)n1CCCN1CCOCC1)Nc1ccc2c(c1)OCO2`: the AC50 under setting [1] is 35.5 µM [falling, single point].

As for `COc1ccccc1NC(=O)C(=O)NCC(c1cccnc1)N1CCc2ccccc2C1` (stereo unspecified), under setting [1], the AC50 is 3.16 µM [falling, partial curve, poor fit].

For `CCc1nn2cc(C(=O)c3ccccc3O)cnc2c1-c1ccc(F)cc1`, the AC50 under setting [2] is 35.5 µM [rising, single point].

Regarding `Cc1cc(C)c(C)c(/C=C(/C#N)C(N)=S)c1C`, the AC50 under setting [2] is 35.5 µM [falling, single point].

As for `COC(=O)c1ccc(NC(=O)CCc2c(C)nn(-c3ccc(N4CCCCC4)nn3)c2C)cc1`, under setting [2], the half-maximal activity concentration (AC50) is 35.5 µM [falling, single point].

As to `Cc1ccccc1-c1nc(Nc2ccncc2)c2ccccc2n1`, the concentration at half-maximal activity (AC50) under setting [1] was 1 µM [falling, partial curve] and the AC50 under setting [2] was 6.31 µM [falling, partial curve, poor fit].

For the compound `Cc1cccc2sc(N(CCN(C)C)C(=O)/C=C/c3cccs3)nc12`, under setting [2], the AC50 was 31.6 µM [rising, single point].

For the compound `O=C(N/N=C/c1ccccc1OCc1ccccc1)c1cccs1`, the AC50 was 7.08 µM [rising, partial curve] under setting [1] and 12.6 µM [rising, single point] under setting [2].

As to `CCC1CCCCN1Cc1nc2c(c(=O)n(C)c(=O)n2C)n1Cc1ccccc1` (stereo unspecified), under setting [2], the AC50 was 6.31 µM [rising, full curve, poor fit].

Turning to `O=C(O)c1ccc(-c2ccc(O)c(F)c2)cc1`, the AC50 is 0.00447 µM [falling, full curve, poor fit] under setting [1] and 0.00447 µM [falling, full curve, poor fit] under setting [2].

`CCCCNc1cc(C)nc(NCc2ccccc2)n1`: the AC50 is 11.2 µM [rising, partial curve, poor fit] under setting [1] and 11.2 µM [rising, partial curve] under setting [2].

For `Cc1ccccc1CNC(=O)C(=O)NCC(c1cccs1)S(=O)(=O)c1cccs1` (stereo unspecified), the AC50 under setting [2] is 0.02 µM [falling, full curve].

Consider `CCN(Cc1ccccc1)c1ccc(/C=N/N=C(N)N)cc1`, for which, under setting [2], the AC50 was 11.2 µM [rising, partial curve].

For `Cc1cccc(NC(=S)Nc2ccc(Oc3ccccc3)cc2)n1`, under setting [2], the AC50 was 2.82 µM [rising, full curve].

For `O=C(COc1ccccc1)OCc1cc(=O)n2nc(-c3cccs3)sc2n1`, the AC50 under setting [1] is 7.08 µM [falling, full curve, poor fit] and the AC50 under setting [2] is 0.0631 µM [falling, full curve].

With `Cc1ccc(S(=O)(=O)CCc2nnc(NC(=O)CCl)s2)cc1C`, the AC50 under setting [2] is 1.41 µM [rising, partial curve, poor fit].

In the case of `CCc1nc(N2CCCC(C)C2)c2oc3ccccc3c2n1` (stereo unspecified), under setting [2], the concentration at half-maximal activity (AC50) was 35.5 µM [rising, single point].

Consider `Cc1cccc(C)c1NC(=O)CCCSc1nnc(-c2ccco2)o1`, for which, under setting [1], the half-maximal activity concentration (AC50) is 20 µM [rising, single point].

With `CCCCC(=O)NNC(=S)NC(=O)c1ccc(C)cc1`, under setting [2], the AC50 is 17.8 µM [rising, partial curve, poor fit].

On to `CCOC(=O)N1CCN(C(=O)c2ccc3c(c2)N(Cc2ccc(C)cc2)CCS3)CC1`, for which the AC50 is, setting by setting: under setting [1], 11.2 µM [rising, single point]; under setting [2], 11.2 µM [rising, partial curve].

On to `Cc1cc(C)n2nc(C(=O)N/N=C/c3c4ccccc4cc4ccccc34)nc2n1`, for which the AC50 under setting [2] was 10 µM [falling, single point].

Regarding `N#C/C(=C\c1ccc([N+](=O)[O-])o1)c1nc2ccccc2[nH]1`, the AC50 under setting [1] is 35.5 µM [falling, single point] and the AC50 under setting [2] is 35.5 µM [falling, single point].

For `C=CCSc1nnc(NC(=O)c2cccc(S(=O)(=O)N(C)c3ccccc3)c2)s1`, the AC50 under setting [2] was 17.8 µM [rising, single point].

As to `Cc1ccc(S(=O)(=O)N2CCSC2c2ccco2)cc1` (stereo unspecified), the AC50 under setting [2] was 31.6 µM [rising, single point].

As for `Cc1cc(C)cc(-n2c(SCC(=O)NC3CCCCC3)nc3c([nH]c4ccccc43)c2=O)c1`, the AC50 by setting is: under setting [1], 7.08 µM [falling, partial curve]; under setting [2], 5.01 µM [falling, full curve].

For `CC12CCC(C(=O)Nc3cccc(Cl)c3)(C(Br)C1=O)C2(C)C` (stereo unspecified), the concentration at half-maximal activity (AC50) by setting is: under setting [1], 12.6 µM [rising, single point]; under setting [2], 15.8 µM [rising, single point].

For the compound `N#C/C(=C\c1cn(CC(=O)N2CCCC2)c2ccccc12)C(=O)NCc1ccc2c(c1)OCO2`, the AC50 under setting [2] was 12.6 µM [rising, single point].

Turning to `COc1ccccc1OCC(=O)NC1CCCCCC1`, the AC50 under setting [1] was 25.1 µM [rising, single point].

Regarding `CCNC(=O)CC1SC(=Nc2cccc3ccccc23)N(C)C1=O` (stereo unspecified), the AC50 under setting [1] was 12.6 µM [rising, partial curve, poor fit] and the AC50 under setting [2] is 12.6 µM [rising, partial curve].

With `COC(=O)C1=C(C)NC(C)=C(C(=O)OC(C)C)[C@H]1c1cccc2nonc12`, the AC50 by setting is: under setting [1], 0.00447 µM [falling, full curve, poor fit]; under setting [2], 0.000447 µM [falling, full curve, poor fit].

Turning to `O=C(Nc1ccc(C(F)(F)F)cc1)c1csc(-c2ccncc2)n1`, the AC50 under setting [1] is 8.91 µM [falling, partial curve] and the concentration at half-maximal activity (AC50) under setting [2] is 0.282 µM [falling, full curve, poor fit].

On to `CC(=O)N1CCN(c2ccc(NCc3ccc(C)cc3)cc2)CC1`, for which the AC50 under setting [2] was 28.2 µM [rising, single point].

As for `O=C(COC(=O)c1ccc([N+](=O)[O-])s1)NC(c1ccccc1)c1ccccc1`, the AC50 was 1.12 µM [rising, full curve, poor fit] under setting [1] and 0.794 µM [rising, single point] under setting [2].

Turning to `O=C(Cn1ccsc1=NC(=O)c1ccco1)c1ccccc1`, the AC50 under setting [2] was 12.6 µM [rising, partial curve, poor fit].

Regarding `O=C(COC(=O)c1cccnc1Nc1cccc(C(F)(F)F)c1)NC1CCS(=O)(=O)C1` (stereo unspecified), the AC50 under setting [1] is 14.1 µM [rising, partial curve] and the AC50 under setting [2] was 12.6 µM [rising, partial curve].

For the compound `CCN(CC)c1ncnc2c1[nH]c1ccccc12`, under setting [2], the AC50 is 35.5 µM [rising, single point].

As for `CCCSc1cc(N2CCOCC2)nc(-c2ccccc2Cl)n1`, the AC50 runs as follows: under setting [1], 35.5 µM [rising, single point]; under setting [2], 31.6 µM [rising, single point].

For the compound `Cc1ccc(C)c(-n2cc(CN3CCN(C(=O)c4ncn[nH]4)CC3)c(-c3ccccc3)n2)c1`, the AC50 is 35.5 µM [falling, single point] under setting [1] and 35.5 µM [falling, single point] under setting [2].

For `CCOC(=O)c1c(-c2ccccc2)nnn1-c1nc(OCC)nc(N2CCCCC2)n1`, the AC50 under setting [2] is 11.2 µM [rising, partial curve].
